Consider 2 sequences from PMC3087504.

Chains of the proteins cited; added tags and fusions are not shown. A line that says so, or that is headed by a name, gives the form on record, which may keep a tag or linker. Residues count along the entry.
UniProt O88898, 40-680: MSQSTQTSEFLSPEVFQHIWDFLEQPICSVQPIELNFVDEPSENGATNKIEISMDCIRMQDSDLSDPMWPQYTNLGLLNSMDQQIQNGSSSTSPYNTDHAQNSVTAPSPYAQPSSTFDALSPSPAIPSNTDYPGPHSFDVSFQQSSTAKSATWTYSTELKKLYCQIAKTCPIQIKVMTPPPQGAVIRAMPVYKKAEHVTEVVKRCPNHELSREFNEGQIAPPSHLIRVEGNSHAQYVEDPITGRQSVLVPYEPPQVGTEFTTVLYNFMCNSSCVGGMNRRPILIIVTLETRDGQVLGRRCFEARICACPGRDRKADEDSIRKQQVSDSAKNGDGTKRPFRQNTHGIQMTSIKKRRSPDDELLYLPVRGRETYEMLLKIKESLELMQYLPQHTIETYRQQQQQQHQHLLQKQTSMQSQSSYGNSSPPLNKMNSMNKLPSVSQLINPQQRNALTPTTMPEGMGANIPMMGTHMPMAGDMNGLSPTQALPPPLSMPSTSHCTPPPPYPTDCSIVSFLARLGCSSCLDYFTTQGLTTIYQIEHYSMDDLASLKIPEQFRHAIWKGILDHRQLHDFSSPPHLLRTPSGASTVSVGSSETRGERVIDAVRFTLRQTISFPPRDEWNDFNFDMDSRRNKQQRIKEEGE
MBP-TAp63γ (Mus musculus), one chain, as listed by the source: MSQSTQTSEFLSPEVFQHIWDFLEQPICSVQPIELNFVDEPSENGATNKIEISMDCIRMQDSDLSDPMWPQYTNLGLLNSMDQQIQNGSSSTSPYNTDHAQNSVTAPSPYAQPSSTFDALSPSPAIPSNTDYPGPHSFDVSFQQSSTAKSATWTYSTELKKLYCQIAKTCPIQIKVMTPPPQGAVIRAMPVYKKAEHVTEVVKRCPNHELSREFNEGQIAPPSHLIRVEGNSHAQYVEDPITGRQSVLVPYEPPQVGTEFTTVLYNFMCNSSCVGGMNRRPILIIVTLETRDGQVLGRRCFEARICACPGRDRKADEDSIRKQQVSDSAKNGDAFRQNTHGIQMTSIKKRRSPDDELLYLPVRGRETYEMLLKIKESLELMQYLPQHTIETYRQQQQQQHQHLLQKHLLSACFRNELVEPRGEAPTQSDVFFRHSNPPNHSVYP

Construct, isoform or probe ends are uncertain for at least one entry. For some assays here: A negative result means that nothing was seen under these conditions. For some assays here: The comparison behind a weaker result is the experiment's own reference, which may not be listed here.

Assay in all cases: fluorescence anisotropy
Series [1] relates to MBP-TAp63γ (Mus musculus). The following applies: 300 nM DNA; 10 mM potassium phosphate pH 7.6, 200 mM NaCl, room temperature, 30 min; 15 nM p21 DNA (300 nM for controls), protein 0.1-15 µM monomer; recombinant protein; protein details: N-term MBP, C-term His6; label: 5'-fluorescein.
For series [2], the target named is MBP-TAp63αFTL (Mus musculus) (UniProt O88898). The following applies: 300 nM DNA; 10 mM potassium phosphate pH 7.6, 200 mM NaCl, room temperature, 30 min; 15 nM p21 DNA (300 nM for controls), protein 0.1-15 µM monomer; recombinant protein; protein details: N-term MBP, C-term His6; label: 5'-fluorescein.
The target in series [3] is MBP-TAp63α (Mus musculus) (UniProt O88898). To be noted: 300 nM DNA, binds, lower affinity than FTL and γ; 10 mM potassium phosphate pH 7.6, 200 mM NaCl, room temperature, 30 min; 15 nM p21 DNA (300 nM for controls), protein 0.1-15 µM monomer; recombinant protein; protein details: N-term MBP, C-term His6; label: 5'-fluorescein.

As for “CGAGTTGTAAGTCGAATTGATACCATAATGCACTACACG (double strand) [random sequence]”, the binding result in series [1] and in series [2] was “no binding” throughout.
As for “CCTATTCTAGACATGTGAGGACATGTCGATACTTATTCC (double strand) [SELEX-based p63 binding sequence]”, the binding result in series [1] is given as “binds”; in series [2] it was “binds”; in series [3] it was “binds more weakly”.
